PubChem BioAssay AID720505, Drosophila RNAi Screening Center – 2013

Aim: 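Genes needed for store-operated calcium entry in fly cells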 (primary screen)
Cells: Drosophila S2R+ cells
Reagent: long dsRNA against Drosophila genes
Treatment: thapsigargin (2 µM) in calcium-free buffer to empty internal stores, then 2 mM calcium added back
Read-out: 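Stores emptied by 2 µM thapsigargin without calcium, then 2 mM calcium re-added; fluo-4 fluorescence followed by FLIPR in 384-well plates, per-well averaged endpoint, raw; two screen passes, some wells retested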
Scale: calcium signal and retest calcium signal: higher = more calcium entry after store depletion
Hit rule: 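About 1500 genes called as lowering calcium entry, by varying amounts, judged against per-plate control wells with STIM1 as positive and Rho1 as negative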
Calls: active = called as lowering calcium entry; inactive = not called
The screen tested about 20,000 reagents; shown is a random part of those with a known target gene and a result. Of all reagents, about 2,100 (10%) are marked active. 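Raw plate signals without normalisation; calls rest on control-based scores that were not deposited; replicate 2 separates called from uncalled poorly.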 The numbers tell different reagents against one gene apart. Names joined by + are all predicted targets of the reagent. No sequences are given here. The record does not give: the amount of reagent, the time to read-out.

gene | reagent no. | calcium signal, replicate 1 | calcium signal, replicate 2 | retest calcium signal, replicate 1 | retest calcium signal, replicate 2 | call
AstCC | 1 | 155 | 146 | – | – | inactive
CG43693 | 1 | 70.5 | 79 | – | – | active
CAH7 | 1 | 77.8 | 84.2 | – | – | inactive
CG43345 + CG43346 | 1 | 111 | 95.8 | – | – | inactive
sinah | 1 | 103 | 179 | – | – | inactive
sinah | 2 | 104 | 242 | – | – | inactive
CG7728 | 1 | 76.4 | 87.9 | – | – | inactive
Nlg3 | 1 | 124 | 180 | – | – | inactive
Nlg3 | 2 | 123 | 104 | – | – | inactive
Nlg3 | 3 | 104 | 93.7 | – | – | inactive
Duox | 1 | 138 | 141 | – | – | inactive
CG6142 | 1 | 221 | 156 | – | – | inactive
fidipidine | 1 | 156 | 147 | – | – | inactive
Msh6 | 1 | 84.6 | 122 | – | – | inactive
chif | 1 | 124 | 109 | – | – | inactive
gkt + CR31953 | 1 | 122 | 177 | – | – | inactive
CG17601 | 1 | 153 | 95.8 | – | – | inactive
dos | 1 | 54.1 | 117 | – | – | inactive
dos | 2 | 115 | 113 | – | – | inactive
CG9896 | 1 | 5406 | 124 | – | – | active
CG9896 | 2 | 130 | 140 | – | – | inactive
CG14294 | 1 | 93.2 | 80.3 | – | – | inactive
CG10920 | 1 | 59.5 | 235 | – | – | active
CG4367 | 1 | 127 | 109 | – | – | inactive
gammaSnap2 | 1 | 114 | 96.7 | – | – | inactive
CG14984 | 1 | 90.6 | 118 | – | – | inactive
kra | 1 | 85.5 | 140 | – | – | inactive
Ccdc39 | 1 | 106 | 96 | – | – | inactive
CG33346 | 1 | 129 | 184 | – | – | inactive
Atox1 | 1 | 72.9 | 134 | – | – | inactive
Hsp70Bb + Hsp70Ba + Hsp70Bc + 1 more | 1 | 137 | 108 | – | – | inactive
Hsp70Bb + Hsp70Ba + Hsp70Bc + 1 more | 2 | 206 | 103 | – | – | inactive
p120ctn | 1 | 81.6 | 158 | – | – | inactive
CG30265 | 1 | 135 | 92.2 | – | – | inactive
Fibp | 1 | 149 | 89.5 | – | – | inactive
phr | 1 | 85.7 | 101 | – | – | inactive

Reagents listed so far called active:
gene | reagent no. | calcium signal, replicate 1 | calcium signal, replicate 2 | retest calcium signal, replicate 1 | retest calcium signal, replicate 2 | call
CG43693 | 1 | 70.5 | 79 | – | – | active
CG9896 | 1 | 5406 | 124 | – | – | active
CG10920 | 1 | 59.5 | 235 | – | – | active

The listing continues:
gene | reagent no. | calcium signal, replicate 1 | calcium signal, replicate 2 | retest calcium signal, replicate 1 | retest calcium signal, replicate 2 | call
a | 1 | 206 | 81 | – | – | inactive
a | 2 | 68.3 | 194 | – | – | inactive
CG13148 | 1 | 137 | 190 | – | – | inactive
CG31871 | 1 | 214 | 167 | – | – | inactive
CG31871 | 2 | 208 | 165 | – | – | inactive
CG4210 | 1 | 101 | 167 | – | – | inactive
cyr | 1 | 187 | 125 | – | – | inactive
cyr | 2 | 183 | 162 | – | – | inactive
cyr | 3 | 168 | 135 | – | – | inactive
asRNA:CR42743 + CG34162 | 1 | 155 | 109 | – | – | inactive
Atg18b | 1 | 183 | 148 | – | – | inactive
Tsp5D | 1 | 212 | 103 | – | – | inactive
Cpr65Au | 1 | 120 | 200 | – | – | inactive
Gcna | 1 | 87 | 95.5 | – | – | inactive
BigH1 | 1 | 92.3 | 116 | – | – | inactive
CG15740 | 1 | 52.3 | 103 | – | – | active
CG15740 | 2 | 85.3 | 120 | – | – | inactive
sls | 1 | 116 | 96.2 | – | – | inactive
sls | 2 | 83.3 | 138 | – | – | inactive
sls | 3 | 73 | 57.7 | – | – | inactive
CG13676 | 1 | 97.9 | 61.1 | – | – | inactive
CG13737 | 1 | 87.7 | 84 | – | – | inactive
Tango4 | 1 | 138 | 107 | – | – | inactive
CG43366 | 1 | 130 | 183 | – | – | inactive
CG43366 | 2 | 89.9 | 120 | – | – | active
CG7963 | 1 | 133 | 151 | – | – | inactive
Rsph4a | 1 | 169 | 75.3 | – | – | inactive
Grl36a | 1 | 114 | 105 | – | – | inactive
caly | 1 | 64 | 118 | – | – | active
CG14260 | 1 | 159 | 121 | – | – | inactive
Gbeta13F | 1 | 156 | 120 | – | – | inactive
Pex23 | 1 | 165 | 147 | – | – | inactive
Pex23 | 2 | 71.5 | 160 | – | – | inactive
CG31122 | 1 | 195 | 280 | 126 | 117 | inactive
CG31122 | 2 | 237 | 207 | – | – | inactive
CG3301 | 1 | 220 | 392 | – | – | inactive
Aplip1 | 1 | 63.9 | 97.2 | – | – | inactive
Aplip1 | 2 | 139 | 95.8 | – | – | inactive
Nurf-38 | 1 | 123 | 227 | – | – | inactive
CG42514 | 1 | 101 | 99.2 | – | – | inactive
CG5162 | 1 | 104 | 122 | – | – | inactive
CG32833 | 1 | 161 | 94.9 | – | – | inactive
mIF2 | 1 | 162 | 125 | – | – | inactive
CG15042 | 1 | 98.4 | 120 | – | – | inactive
Vajk4 | 1 | 102 | 125 | – | – | inactive
Vajk4 | 2 | 219 | 135 | – | – | inactive
CG31862 | 1 | 210 | 90.8 | – | – | inactive
